Data from PubChem BioAssay AID256 (DTP/NCI, 2004).
The list is a part of this screen's results and no random one: it gathers tests that were run many times, whatever their T/C, doses with no T/C, and many T/C values between a quarter and a half above the control. Further doses and runs are listed elsewhere. T/C: endpoint of the treated group in % of that of the vehicle group. Some entries give survivors of the animals treated and no T/C: the source holds a T/C of zero for them, seemingly a mark for toxic or unscored doses. Some doses without a T/C left all or most animals alive at the check, yet need not have been tolerated: the source hardly ever lists a survival T/C far under the control, and the zero likely stands for such cases as well. Survivors were counted at the toxicity check, usually on the fifth day, unless a day is given; later deaths do not show. Schedules are NCI's codes, taken here to give the interval after Q, in days (D) or hours (H), and the number of doses after X. For survival time, the PubChem record calls one and a half times the control and up active, and a quarter to a half above the control has no call in these data; cut-offs in other NCI protocols can differ.

System: CD2F1 mice, L1210 leukemia ip, survival T/C
Experiment: NCI In Vivo Anticancer Drug Screen. Data for tumor model L1210 Leukemia (intraperitoneal) in CD2F1 (CDF1) mice
Settings: higher T/C = longer survival
In short: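 Read-out first: treated-group measurement over vehicle-control measurement, expressed as a ratio. Animals bore a transplanted tumor line and were dosed with compound or vehicle.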

[1] = T/C endpoint: mean survival time, dose: 400.0 mg/kg/injection, schedule: Q01DX001 (ip), vehicle: saline with Tween-80
[2] = T/C endpoint: mean survival time, dose: 400.0 mg/kg/injection, schedule: Q01DX009 (ip), vehicle: saline with Tween-80
[3] = T/C endpoint: mean survival time, dose: 400.0 mg/kg/injection, schedule: Q04DX003 (ip), vehicle: saline with Tween-80
[4] = T/C endpoint: mean survival time, dose: 200.0 mg/kg/injection, schedule: Q01DX009 (ip), vehicle: saline with Tween-80
[5] = T/C endpoint: mean survival time, dose: 200.0 mg/kg/injection, schedule: Q04DX003 (ip), vehicle: saline with Tween-80

CC(C)(C)[O][Pb]([c]1ccccc1)([c]1ccccc1)[c]1ccccc1
survivor count (T/C endpoint: mean survival time, dose: 12.5 mg/kg/injection, schedule: Q01DX009 (ip), vehicle: saline with Tween-80): 0 of 6 | survivor count (T/C endpoint: mean survival time, dose: 25.0 mg/kg/injection, schedule: Q01DX009 (ip), vehicle: saline with Tween-80): 0 of 6 | survivor count (T/C endpoint: mean survival time, dose: 50.0 mg/kg/injection, schedule: Q01DX009 (ip), vehicle: saline with Tween-80): 0 of 6

CC1OC(=O)C(C(C)C)NC(=O)C(C(C)C)OC(=O)C(C(C)C)NC(=O)C(C)OC(=O)C(C(C)C)NC(=O)C(C(C)C)OC(=O)C(C(C)C)NC(=O)C(C)OC(=O)C(C(C)C)NC(=O)C(C(C)C)OC(=O)C(C(C)C)NC1=O (stereo not drawn)
survivor count (T/C endpoint: mean survival time, dose: 10.0 mg/kg/injection, schedule: Q01DX009 (ip), vehicle: saline with Tween-80): 3 of 6 | T/C (T/C endpoint: mean survival time, dose: 40.0 mg/kg/injection, schedule: Q01DX009 (ip), vehicle: saline with Tween-80): 128 % of control

Cc1cccc(N=Cc2ccccc2O)c1
survivor count [1]: 6 of 6

O=C(O)/C=C/C(=O)Nc1ccc(I)cc1
survivor count [2]: 0 of 6

CCCCNS(=O)(=O)c1ccccc1
survivor count [3]: 2 of 6

COc1cccc(N=Nc2c(N)nc(N)nc2N)c1
survivor count (T/C endpoint: mean survival time, dose: 100.0 mg/kg/injection, schedule: Q01DX009 (ip), vehicle: saline with Tween-80): 6 of 6 | survivor count [4]: 3 of 6

CC(C)C[P+](c1ccccc1)(c1ccccc1)c1ccccc1
survivor count (T/C endpoint: mean survival time, dose: 150.0 mg/kg/injection, schedule: Q01DX001 (ip), vehicle: other): 2 of 6 | survivor count (T/C endpoint: mean survival time, dose: 300.0 mg/kg/injection, schedule: Q01DX001 (ip), vehicle: other): 0 of 6

C/C=C/CNc1ccccc1
survivor count [3]: 5 of 6

CC(C)(O)/C=C/C(=O)[C@](C)(O)[C@H]1[C@H](O)C[C@@]2(C)[C@@H]3CC=C4[C@@H](C=C(O)C(=O)C4(C)C)[C@]3(C)C(=O)C[C@]12C
survivor count (T/C endpoint: median survival time, dose: 2.0 mg/kg/injection, schedule: Q01DX005 (ip), vehicle: water): 0 of 6 | survivor count (T/C endpoint: median survival time, dose: 4.0 mg/kg/injection, schedule: Q01DX005 (ip), vehicle: water): 0 of 6 | survivor count (T/C endpoint: median survival time, dose: 8.0 mg/kg/injection, schedule: Q01DX005 (ip), vehicle: water): 0 of 6

C=CC[n+]1cccc2ccccc21
survivor count [5]: 0 of 6 | survivor count [3]: 0 of 6

CCOC(=O)C(C(=O)OCC)=C1CCC(=O)O1
survivor count (T/C endpoint: mean survival time, dose: 400.0 mg/kg/injection, schedule: Q04DX002 (ip), vehicle: saline with Tween-80): 2 of 3

CCOC(=O)C[Se]CC(=O)OCC
survivor count [1]: 1 of 3

CC(NC1=NCCO1)c1cccc2ccccc12 (stereo not drawn)
survivor count [5]: 1 of 6 | survivor count [3]: 0 of 6

Clc1cccc(-n2ccnc2)c1
survivor count [2]: 5 of 6

CC(=O)CC(C)=O.CC(=O)CC(C)=O.CC(=O)CC(C)=O.CC(=O)CC(C)=O.[Hf]
survivor count [3]: 3 of 6

CC(=O)Nc1ccc(S(=O)(=O)/N=C2\C=CC(=O)c3ccccc32)cc1
survivor count [4]: 4 of 6 | survivor count [1]: 0 of 6

COc1ccc(C(=O)N/N=C(\C)[C@]2(O)Cc3c(O)c4c(c(O)c3[C@@H](OC3CC(N)C(O)C(C)O3)C2)C(=O)c2c(OC)cccc2C4=O)cc1 (stereo partly drawn)
T/C (T/C endpoint: mean survival time, dose: 8.0 mg/kg/injection, schedule: Q01DX009 (ip), vehicle: water): 136 % of control | survivor count (T/C endpoint: mean survival time, dose: 16.0 mg/kg/injection, schedule: Q01DX009 (ip), vehicle: water): 6 of 6

COc1ccc2c(oc(=O)c3c(Cl)nc(C)c(C)c32)c1OC
survivor count (T/C endpoint: mean survival time, dose: 400.0 mg/kg/injection, schedule: Q01DX009 (ip), vehicle: Klucel (hydroxypropylcellulose) (HPC)): 6 of 6

CCC(=O)c1ccc(NC(=O)Nc2ncccn2)cc1
survivor count (T/C endpoint: mean survival time, dose: 200.0 mg/kg/injection, schedule: Q01DX009 (ip), vehicle: Klucel (hydroxypropylcellulose) (HPC)): 2 of 3

COc1ccc(Cc2nc(C)cc3cc(OC)c(OC)cc23)cc1OC
survivor count (T/C endpoint: mean survival time, dose: 50.0 mg/kg/injection, schedule: Q01DX009 (ip), vehicle: water): 6 of 6 | survivor count (T/C endpoint: mean survival time, dose: 100.0 mg/kg/injection, schedule: Q01DX009 (ip), vehicle: water): 6 of 6 | survivor count (T/C endpoint: mean survival time, dose: 200.0 mg/kg/injection, schedule: Q01DX009 (ip), vehicle: water): 5 of 6
